The supplement of paper PMC8728848
The other results are listed elsewhere or left out.

Tests used:
Test in all cases: glycan array binding signal (z-score within array); higher = stronger binding
Conditions in all cases: glycan notation: IUPAC condensed, linker removed
[1] = test system: Neu5Ac(a2-6)Gal(b1-4)GlcNAc(b1-2)Man(a1-3)[Neu5Ac(a2-6)Gal(b1-4)GlcNAc(b1-2)Man(a1-6)]Man(b1-4)GlcNAc(b1-4)GlcNAc
Summary of the method: (§1)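 From the Consortium for Functional Glycomics database, 3228 arrays were curated, keeping only those whose protein sequence was available. Binding is given as a within-array Z-score averaged across arrays sharing a protein sequence and across linkers. Negative Z-scores can be read as non-binding.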

[2] = test system: Neu5Ac(a2-6)Gal(b1-4)GlcNAc(b1-2)Man(a1-3)[Neu5Ac(a2-6)Gal(b1-4)GlcNAc(b1-2)Man(a1-6)]Man(b1-4)GlcNAc(b1-4)[Fuc(a1-6)]GlcNAc
Summary of the method: as §1

[3] = test system: Neu5Ac(a2-6)Gal(b1-4)GlcNAc(b1-2)Man(a1-6)Man(b1-4)GlcNAc(b1-4)GlcNAc
Summary of the method: as §1

[4] = test system: Neu5Ac(a2-6)Gal(b1-4)GlcNAc(b1-2)Man(a1-6)[Gal(b1-4)GlcNAc(b1-2)Man(a1-3)]Man(b1-4)GlcNAc(b1-4)GlcNAc
Summary of the method: as §1

[5] = test system: Neu5Ac(a2-6)Gal(b1-4)GlcNAc(b1-2)Man(a1-6)[GlcNAc(b1-2)Man(a1-3)]Man(b1-4)GlcNAc(b1-4)GlcNAc
Summary of the method: as §1

[6] = test system: Neu5Ac(a2-6)Gal(b1-4)GlcNAc(b1-2)Man(a1-6)[Man(a1-3)]Man(b1-4)GlcNAc(b1-4)GlcNAc
Summary of the method: as §1

[7] = test system: Neu5Ac(a2-6)Gal(b1-4)GlcNAc(b1-2)Man
Summary of the method: as §1

[8] = test system: Neu5Ac(a2-6)Gal(b1-4)GlcNAc(b1-2)[Neu5Ac(a2-6)Gal(b1-4)GlcNAc(b1-4)]Man(a1-3)[GlcNAc(b1-4)][Neu5Ac(a2-6)Gal(b1-4)GlcNAc(b1-2)[Neu5Ac(a2-6)Gal(b1-4)GlcNAc(b1-6)]Man(a1-6)]Man(b1-4)GlcNAc(b1-4)GlcNAc
Summary of the method: as §1

[9] = test system: Neu5Ac(a2-6)Gal(b1-4)GlcNAc(b1-2)[Neu5Ac(a2-6)Gal(b1-4)GlcNAc(b1-4)]Man(a1-3)[GlcNAc(b1-4)][Neu5Ac(a2-6)Gal(b1-4)GlcNAc(b1-4)Man(a1-6)]Man(b1-4)GlcNAc(b1-4)GlcNAc
Summary of the method: as §1

[10] = test system: Neu5Ac(a2-6)Gal(b1-4)GlcNAc(b1-2)[Neu5Ac(a2-6)Gal(b1-4)GlcNAc(b1-6)]Man(a1-6)[Neu5Ac(a2-6)Gal(b1-4)GlcNAc(b1-2)Man(a1-3)][GlcNAc(b1-4)]Man(b1-4)GlcNAc(b1-4)GlcNAc
Summary of the method: as §1

[11] = test system: Neu5Ac(a2-6)Gal(b1-4)GlcNAc(b1-3)Gal(b1-3)GlcNAc
Summary of the method: as §1

[12] = test system: Neu5Ac(a2-6)Gal(b1-4)GlcNAc(b1-3)Gal(b1-4)GlcNAc(b1-2)Man(a1-3)[Neu5Ac(a2-6)Gal(b1-4)GlcNAc(b1-3)Gal(b1-4)GlcNAc(b1-2)Man(a1-6)]GalNAc
Summary of the method: as §1

[13] = test system: Neu5Ac(a2-6)Gal(b1-4)GlcNAc(b1-3)Gal(b1-4)GlcNAc(b1-3)Gal(b1-4)GlcNAc(b1-2)Man(a1-3)[Neu5Ac(a2-6)Gal(b1-4)GlcNAc(b1-3)Gal(b1-4)GlcNAc(b1-3)Gal(b1-4)GlcNAc(b1-2)Man(a1-6)]GalNAc
Summary of the method: as §1

[14] = test system: Neu5Ac(a2-6)Gal(b1-4)GlcNAc(b1-3)Gal(b1-4)GlcNAc(b1-3)Gal(b1-4)GlcNAc
Summary of the method: as §1

[15] = test system: Neu5Ac(a2-6)Gal(b1-4)GlcNAc(b1-3)Gal(b1-4)GlcNAc(b1-3)GalNAc
Summary of the method: as §1

[16] = test system: Neu5Ac(a2-6)Gal(b1-4)GlcNAc(b1-3)Gal(b1-4)GlcNAc(b1-3)[Neu5Ac(a2-6)Gal(b1-4)GlcNAc(b1-3)Gal(b1-4)GlcNAc(b1-6)]GalNAc
Summary of the method: as §1

[17] = test system: Neu5Ac(a2-6)Gal(b1-4)GlcNAc(b1-3)Gal(b1-4)GlcNAc(b1-6)[Gal(b1-3)]GalNAc
Summary of the method: as §1

[18] = test system: Neu5Ac(a2-6)Gal(b1-4)GlcNAc(b1-3)Gal(b1-4)GlcNAc
Summary of the method: as §1

[19] = test system: Neu5Ac(a2-6)Gal(b1-4)GlcNAc(b1-3)Gal(b1-4)[Fuc(a1-3)]GlcNAc(b1-3)Gal(b1-4)[Fuc(a1-3)]GlcNAc
Summary of the method: as §1

[20] = test system: Neu5Ac(a2-6)Gal(b1-4)GlcNAc(b1-3)GalNAc
Summary of the method: as §1

[21] = test system: Neu5Ac(a2-6)Gal(b1-4)GlcNAc(b1-3)[Neu5Ac(a2-6)Gal(b1-4)GlcNAc(b1-6)]GalNAc
Summary of the method: as §1

[22] = test system: Neu5Ac(a2-6)Gal(b1-4)GlcNAc(b1-6)GalNAc
Summary of the method: as §1

[23] = test system: Neu5Ac(a2-6)Gal(b1-4)GlcNAc(b1-6)[Gal(b1-3)GlcNAc(b1-3)]Gal(b1-4)Glc
Summary of the method: as §1

[24] = test system: Neu5Ac(a2-6)Gal(b1-4)GlcNAc(b1-6)[Gal(b1-3)]GalNAc
Summary of the method: as §1

[25] = test system: Neu5Ac(a2-6)Gal(b1-4)GlcNAc6S
Summary of the method: as §1

[26] = test system: Neu5Ac(a2-6)Gal(b1-4)GlcNAc
Summary of the method: as §1

Neu5Ac(a2-6)Gal(b1-4)Glc = test system: Neu5Ac(a2-6)Gal(b1-4)Glc
Summary of the method: as §1

[27] = test system: Neu5Ac(a2-6)GalNAc(b1-4)GlcNAc6S
Summary of the method: as §1

[28] = test system: Neu5Ac(a2-6)GalNAc(b1-4)GlcNAc
Summary of the method: as §1

Neu5Ac(a2-6)GalNAc = test system: Neu5Ac(a2-6)GalNAc
Summary of the method: as §1

Neu5Ac(a2-6)Gal = test system: Neu5Ac(a2-6)Gal
Summary of the method: as §1

[29] = test system: Neu5Ac(a2-6)GlcNAc(b1-4)GlcNAc(b1-4)GlcNAc
Summary of the method: as §1

MpAFP RI GFP (Marinomonas primoryensis)
glycan array binding signal (z-score) [1]: 0.414
glycan array binding signal (z-score) [2]: 2.72
glycan array binding signal (z-score) [3]: -0.413
glycan array binding signal (z-score) [4]: -0.456
glycan array binding signal (z-score) [5]: -0.058
glycan array binding signal (z-score) [6]: -0.424
glycan array binding signal (z-score) [7]: -0.312
glycan array binding signal (z-score) [8]: -0.411
glycan array binding signal (z-score) [9]: 0.092
glycan array binding signal (z-score) [10]: -0.289
glycan array binding signal (z-score) [11]: -0.701
glycan array binding signal (z-score) [12]: -0.261
glycan array binding signal (z-score) [13]: 3.43
glycan array binding signal (z-score) [14]: 1.44
glycan array binding signal (z-score) [15]: -0.467
glycan array binding signal (z-score) [16]: 1.36
glycan array binding signal (z-score) [17]: -0.466
glycan array binding signal (z-score) [18]: -0.758
glycan array binding signal (z-score) [19]: -0.163
glycan array binding signal (z-score) [20]: -0.218
glycan array binding signal (z-score) [21]: -0.593
glycan array binding signal (z-score) [22]: -0.176
glycan array binding signal (z-score) [23]: -0.159
glycan array binding signal (z-score) [24]: -0.306
glycan array binding signal (z-score) [25]: -0.569
glycan array binding signal (z-score) [26]: -0.671
glycan array binding signal (z-score) (Neu5Ac(a2-6)Gal(b1-4)Glc): -0.481
glycan array binding signal (z-score) [27]: -0.16
glycan array binding signal (z-score) [28]: -0.698
glycan array binding signal (z-score) (Neu5Ac(a2-6)GalNAc): -0.357
glycan array binding signal (z-score) (Neu5Ac(a2-6)Gal): -0.546
glycan array binding signal (z-score) [29]: 0.806
